Measurements: publication PMC4671683
No constants are given. Whether binding was seen depends on the method and setting. Binding seen in cells or lysates may run through a third protein. A yes stands for co-enrichment or nearness to the bait. Other partners may have been found.

Amino acid sequences for entries named in this document (tags omitted).
UniProt P26368: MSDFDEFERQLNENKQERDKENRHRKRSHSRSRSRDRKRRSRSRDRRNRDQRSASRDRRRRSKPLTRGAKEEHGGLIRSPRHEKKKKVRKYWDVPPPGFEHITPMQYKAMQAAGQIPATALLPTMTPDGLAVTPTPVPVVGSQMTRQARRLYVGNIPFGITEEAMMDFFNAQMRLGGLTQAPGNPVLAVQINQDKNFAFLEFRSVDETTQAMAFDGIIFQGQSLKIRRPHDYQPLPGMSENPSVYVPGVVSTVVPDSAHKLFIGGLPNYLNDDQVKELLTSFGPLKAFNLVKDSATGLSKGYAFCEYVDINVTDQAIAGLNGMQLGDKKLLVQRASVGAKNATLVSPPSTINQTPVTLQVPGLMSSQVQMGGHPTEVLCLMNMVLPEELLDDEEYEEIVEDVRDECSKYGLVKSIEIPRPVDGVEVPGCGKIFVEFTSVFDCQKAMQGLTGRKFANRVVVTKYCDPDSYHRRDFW
UniProt Q07955: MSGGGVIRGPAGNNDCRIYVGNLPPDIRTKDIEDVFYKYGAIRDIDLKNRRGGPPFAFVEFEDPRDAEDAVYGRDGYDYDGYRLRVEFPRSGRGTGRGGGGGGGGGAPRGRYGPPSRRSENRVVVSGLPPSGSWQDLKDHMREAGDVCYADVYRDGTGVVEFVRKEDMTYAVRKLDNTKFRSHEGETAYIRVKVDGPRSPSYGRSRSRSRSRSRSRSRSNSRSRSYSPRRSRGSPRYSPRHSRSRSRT
UniProt Q9UQ35: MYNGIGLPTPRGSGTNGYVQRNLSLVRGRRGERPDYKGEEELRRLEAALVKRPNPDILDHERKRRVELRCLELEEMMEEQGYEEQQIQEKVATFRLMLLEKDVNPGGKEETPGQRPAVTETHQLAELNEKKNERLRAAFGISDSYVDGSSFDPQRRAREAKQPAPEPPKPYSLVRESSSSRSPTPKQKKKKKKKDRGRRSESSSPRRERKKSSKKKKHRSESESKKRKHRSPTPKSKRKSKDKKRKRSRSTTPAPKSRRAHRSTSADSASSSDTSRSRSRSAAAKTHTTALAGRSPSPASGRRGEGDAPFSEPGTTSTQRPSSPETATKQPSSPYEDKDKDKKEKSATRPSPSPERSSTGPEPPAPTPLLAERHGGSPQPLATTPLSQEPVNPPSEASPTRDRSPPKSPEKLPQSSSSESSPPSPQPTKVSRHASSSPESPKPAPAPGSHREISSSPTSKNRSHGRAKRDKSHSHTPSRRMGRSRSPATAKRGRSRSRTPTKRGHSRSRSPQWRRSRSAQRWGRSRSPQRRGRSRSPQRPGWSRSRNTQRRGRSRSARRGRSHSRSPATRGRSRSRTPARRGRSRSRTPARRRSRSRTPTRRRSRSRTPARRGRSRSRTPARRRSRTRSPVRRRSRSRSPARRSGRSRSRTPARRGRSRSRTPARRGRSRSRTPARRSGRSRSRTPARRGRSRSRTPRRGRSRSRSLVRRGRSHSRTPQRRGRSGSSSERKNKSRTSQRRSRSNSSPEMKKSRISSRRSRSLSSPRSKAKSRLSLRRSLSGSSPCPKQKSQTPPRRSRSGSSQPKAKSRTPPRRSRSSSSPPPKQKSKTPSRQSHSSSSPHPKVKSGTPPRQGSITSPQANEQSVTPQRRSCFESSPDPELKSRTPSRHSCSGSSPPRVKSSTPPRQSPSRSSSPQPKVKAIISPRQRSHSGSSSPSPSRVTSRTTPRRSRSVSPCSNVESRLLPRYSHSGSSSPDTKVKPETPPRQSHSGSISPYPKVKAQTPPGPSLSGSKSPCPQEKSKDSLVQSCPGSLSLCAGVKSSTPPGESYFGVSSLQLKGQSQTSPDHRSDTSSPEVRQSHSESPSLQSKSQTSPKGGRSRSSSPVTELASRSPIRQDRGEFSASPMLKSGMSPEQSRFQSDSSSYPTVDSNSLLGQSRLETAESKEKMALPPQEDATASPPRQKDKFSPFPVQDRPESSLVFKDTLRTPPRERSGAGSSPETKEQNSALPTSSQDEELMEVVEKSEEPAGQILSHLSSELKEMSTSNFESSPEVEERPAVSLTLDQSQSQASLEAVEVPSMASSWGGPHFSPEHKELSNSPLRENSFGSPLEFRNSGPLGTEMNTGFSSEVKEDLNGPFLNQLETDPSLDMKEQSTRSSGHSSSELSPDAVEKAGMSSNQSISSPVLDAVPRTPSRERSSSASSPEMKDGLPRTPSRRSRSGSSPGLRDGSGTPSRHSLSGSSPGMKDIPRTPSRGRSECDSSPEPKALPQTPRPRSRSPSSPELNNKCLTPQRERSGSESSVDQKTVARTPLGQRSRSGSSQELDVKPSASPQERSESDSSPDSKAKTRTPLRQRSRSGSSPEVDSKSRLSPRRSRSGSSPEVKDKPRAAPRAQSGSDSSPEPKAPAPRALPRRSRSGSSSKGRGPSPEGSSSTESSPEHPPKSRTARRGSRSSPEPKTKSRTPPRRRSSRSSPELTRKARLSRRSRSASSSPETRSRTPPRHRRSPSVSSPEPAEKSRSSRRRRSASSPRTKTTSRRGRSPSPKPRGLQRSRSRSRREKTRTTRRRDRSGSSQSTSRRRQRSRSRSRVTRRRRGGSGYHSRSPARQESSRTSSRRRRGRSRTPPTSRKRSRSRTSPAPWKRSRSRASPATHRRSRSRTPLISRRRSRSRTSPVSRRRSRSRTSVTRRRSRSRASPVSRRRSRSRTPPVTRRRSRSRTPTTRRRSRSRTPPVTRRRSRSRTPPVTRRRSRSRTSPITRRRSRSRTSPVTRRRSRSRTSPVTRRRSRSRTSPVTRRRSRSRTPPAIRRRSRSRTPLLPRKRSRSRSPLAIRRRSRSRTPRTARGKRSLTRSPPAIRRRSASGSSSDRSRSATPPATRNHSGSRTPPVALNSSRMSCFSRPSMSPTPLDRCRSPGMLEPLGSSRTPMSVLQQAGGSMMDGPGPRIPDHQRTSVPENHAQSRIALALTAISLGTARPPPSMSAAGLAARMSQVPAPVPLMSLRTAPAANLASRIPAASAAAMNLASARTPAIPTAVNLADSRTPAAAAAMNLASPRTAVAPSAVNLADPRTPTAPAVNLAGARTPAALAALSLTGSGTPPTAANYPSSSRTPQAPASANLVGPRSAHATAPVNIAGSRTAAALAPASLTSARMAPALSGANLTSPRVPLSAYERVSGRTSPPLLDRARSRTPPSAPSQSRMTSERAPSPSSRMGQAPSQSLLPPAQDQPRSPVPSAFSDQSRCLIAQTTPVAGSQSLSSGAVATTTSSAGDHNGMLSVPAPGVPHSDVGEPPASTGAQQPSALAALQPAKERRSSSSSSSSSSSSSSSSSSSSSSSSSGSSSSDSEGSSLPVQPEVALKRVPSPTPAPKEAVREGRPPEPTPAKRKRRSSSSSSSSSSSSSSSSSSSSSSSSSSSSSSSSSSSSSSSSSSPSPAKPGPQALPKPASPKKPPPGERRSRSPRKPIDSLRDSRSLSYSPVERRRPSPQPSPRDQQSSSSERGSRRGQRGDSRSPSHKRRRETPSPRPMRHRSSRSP

What was measured:
[1] = target: U2AF2 (human (endogenous in primary CD4 T cells and Jurkat cells)) (UniProt P26368); assay: affinity purification with mass spectrometry; U2AF2 RIP from lysates (RIPA + NET-2 buffer) of resting or activated CD4 T cells, pre-cleared with mouse IgG beads, U2AF2 antibody on Protein G beads overnight at 4°C, 5 washes with NET-2, no RNase; TripleTOF 5600, n = 6/group
[2] = target: U2AF2 (human (endogenous in primary CD4 T cells and Jurkat cells)) (UniProt P26368); assay: affinity purification with mass spectrometry; as the U2AF2 RIP-MS, but RNAse A digestion on the beads (10 ug/ml for 30 minutes at RT) before elution; resting or activated CD4 T cells, n = 4/group
[3] = target: U2AF2 (human (endogenous in primary CD4 T cells and Jurkat cells)) (UniProt P26368); assay: affinity purification with mass spectrometry; SILAC: lysates of labelled and unlabelled resting and activated CD4 T cells mixed by cell number, U2AF2 RIP, mass spectrometry, ratios resting/activated, n = 3/group

SFRS1 (from UniProt Q07955 1-248)
binding [1]: binds

SRRM2 (from UniProt Q9UQ35 1-2752)
binding [2]: binds
binding [3]: binds
binding [1]: binds
